Results deposited as PubChem BioAssay AID1224830 (NIAID, 2016).
This is one part, drawn at random, of about 18,000 deposited reagents. About 2,900 of all reagents (16%) count as active. 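Calls are made per well; low scores hint the gene aids the LPS response, high scores that it dampens it.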 Repeated entries: four replicate wells of each siRNA pool.

Screen: 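Host factors that control LPS-induced TNF expression in human macrophages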 (primary screen)
System: human THP-1 monocytic leukaemia cells, TNF dual-luciferase reporter clone, PMA-differentiated to macrophage-like cells
Reagent: siRNA pool against human genes, 50 nM
Time to read-out: LPS for 4 h, given about 3 days after siRNA transfection
Treatment: bacterial LPS (TLR4 ligand), 10 ng/ml
Detection: 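TNF firefly reporter luminescence divided by renilla, normalised to the plate median, then turned into a robust z-score for each replicate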
Scale: TNF reporter robust z-score: higher = stronger TNF reporter response to LPS
Active means: 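Each well counts as active if its z-score is over 2.8 or under -1.5; controls are left without a call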

Against CFAP119 the deposit lists TNF reporter robust z-score 0.12; inactive.
Depletion of CFAP119 came out at: TNF reporter robust z-score 0.34; inactive.
Against CFAP119, the values are TNF reporter robust z-score -0.53; inactive.
CFAP119 gave TNF reporter robust z-score 0.68; inactive.
With knock-down of IL4R, the record shows TNF reporter robust z-score 1.28; inactive.
Depletion of IL4R gave: TNF reporter robust z-score 0.92; inactive.
Depletion of IL4R resulted in: TNF reporter robust z-score 0.78; inactive.
For IL4R the deposit lists TNF reporter robust z-score 0.27; inactive.
SEPHS2 gave TNF reporter robust z-score 0.29; inactive.
SEPHS2 gave TNF reporter robust z-score 1.39; inactive.
For SEPHS2, the entry reads TNF reporter robust z-score -0.11; inactive.
With knock-down of SEPHS2 the results were TNF reporter robust z-score 0.65; inactive.
CERS4 showed TNF reporter robust z-score -0.01; inactive.
For CERS4, the values are TNF reporter robust z-score 1.18; inactive.
CERS4 showed TNF reporter robust z-score 1.75; inactive.
With knock-down of CERS4 the results were TNF reporter robust z-score 0.18; inactive.
CIRBP-AS1 scored TNF reporter robust z-score -0.29; inactive.
CIRBP-AS1 scored TNF reporter robust z-score -1.19; inactive.
CIRBP-AS1 showed TNF reporter robust z-score -0.68; inactive.
Against CIRBP-AS1 the deposit lists TNF reporter robust z-score -0.48; inactive.
Depletion of PKD2 came out at: TNF reporter robust z-score -0.18; inactive.
PKD2 showed TNF reporter robust z-score 0.39; inactive.
Against PKD2, the entry reads TNF reporter robust z-score -0.09; inactive.
PKD2 showed TNF reporter robust z-score 0.44; inactive.
GCFC2 gave TNF reporter robust z-score -1.3; inactive.
Silencing of GCFC2 came out at: TNF reporter robust z-score -0.43; inactive.
For GCFC2 the deposit lists TNF reporter robust z-score -0.06; inactive.
Knock-down of GCFC2 gave: TNF reporter robust z-score 0.14; inactive.
Depletion of RHOXF1 came out at: TNF reporter robust z-score -0.24; inactive.
Against RHOXF1, the entry reads TNF reporter robust z-score 0.21; inactive.
RHOXF1 showed TNF reporter robust z-score 0.05; inactive.
Silencing of RHOXF1 gave: TNF reporter robust z-score 0.12; inactive.

4 of these entries, set out differently:
{"Target gene": "CIRBP-AS1", "TNF reporter robust z-score": -0.29, "activity call": "inactive"}
{"Target gene": "CIRBP-AS1", "TNF reporter robust z-score": -1.19, "activity call": "inactive"}
{"Target gene": "CIRBP-AS1", "TNF reporter robust z-score": -0.68, "activity call": "inactive"}
{"Target gene": "CIRBP-AS1", "TNF reporter robust z-score": -0.48, "activity call": "inactive"}
